Assay results published in PMC8800262.
No constants are given. Whether binding was seen depends on the method and setting. In cells and extracts the contact can be indirect. Some binding calls cover weakened binding; strength is not graded here.

Biological target: T1, nuclear factor erythroid 2-related factor 2 (mouse (endogenous in HT-22)) (UniProt Q60795)
T1 sequence: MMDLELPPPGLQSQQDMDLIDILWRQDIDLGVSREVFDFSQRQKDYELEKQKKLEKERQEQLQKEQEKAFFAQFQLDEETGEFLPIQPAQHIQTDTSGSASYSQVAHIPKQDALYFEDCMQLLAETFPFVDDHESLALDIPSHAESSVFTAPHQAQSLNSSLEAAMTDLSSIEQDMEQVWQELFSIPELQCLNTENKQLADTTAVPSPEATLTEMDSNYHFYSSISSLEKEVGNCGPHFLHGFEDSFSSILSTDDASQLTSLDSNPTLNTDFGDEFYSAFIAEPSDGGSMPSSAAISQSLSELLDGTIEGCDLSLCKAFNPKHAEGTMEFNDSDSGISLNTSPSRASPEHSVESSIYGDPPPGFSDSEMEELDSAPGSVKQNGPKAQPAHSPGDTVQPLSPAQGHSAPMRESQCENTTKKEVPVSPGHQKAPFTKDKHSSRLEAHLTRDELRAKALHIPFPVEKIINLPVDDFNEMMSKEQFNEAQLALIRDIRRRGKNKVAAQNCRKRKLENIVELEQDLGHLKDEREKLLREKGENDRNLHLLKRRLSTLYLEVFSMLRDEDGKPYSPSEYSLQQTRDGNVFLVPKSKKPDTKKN
Assay: co-IP; total protein of HT-22 cells treated with or without eriodictyol (8 uM); anti-Nrf2 or anti-vitamin D receptor antibody on Protein A/G magnetic beads; binding buffer 50 mM Tris-HCl, 150 mM NaCl, 0.1%-0.5 detergent (Triton X-100 and Tween 20), pH 7.5; 1 h at room temperature; Western blot with anti-vitamin D receptor or anti-Nrf2 antibody

B1: vitamin D receptor (protein, UniProt P48281 1-422)
chain: MEAMAASTSLPDPGDFDRNVPRICGVCGDRATGFHFNAMTCEGCKGFFRRSMKRKALFTCPFNGDCRITKDNRRHCQACRLKRCVDIGMMKEFILTDEEVQRKREMIMKRKEEEALKDSLRPKLSEEQQHIIAILLDAHHKTYDPTYADFRDFRPPIRADVSTGSYSPRPTLSFSGDSSSNSDLYTPSLDMMEPASFSTMDLNEEGSDDPSVTLDLSPLSMLPHLADLVSYSIQKVIGFAKMIPGFRDLTSDDQIVLLKSSAIEVIMLRSNQSFTLDDMSWDCGSQDYKYDITDVSRAGHTLELIEPLIKFQVGLKKLNLHEEEHVLLMAICIVSPDRPGVQDAKLVEAIQDRLSNTLQTYIRCRHPPPGSHQLYAKMIQKLADLRSLNEEHSKQYRSLSFQPENSMKLTPLVLEVFGNEIS
For B1, the binding was “binds”.
